Primary screen of a compound library

Amino acid sequences for entries named in this document (tags omitted). Residues count along the entry.
UniProt Q4DA54, 1-478: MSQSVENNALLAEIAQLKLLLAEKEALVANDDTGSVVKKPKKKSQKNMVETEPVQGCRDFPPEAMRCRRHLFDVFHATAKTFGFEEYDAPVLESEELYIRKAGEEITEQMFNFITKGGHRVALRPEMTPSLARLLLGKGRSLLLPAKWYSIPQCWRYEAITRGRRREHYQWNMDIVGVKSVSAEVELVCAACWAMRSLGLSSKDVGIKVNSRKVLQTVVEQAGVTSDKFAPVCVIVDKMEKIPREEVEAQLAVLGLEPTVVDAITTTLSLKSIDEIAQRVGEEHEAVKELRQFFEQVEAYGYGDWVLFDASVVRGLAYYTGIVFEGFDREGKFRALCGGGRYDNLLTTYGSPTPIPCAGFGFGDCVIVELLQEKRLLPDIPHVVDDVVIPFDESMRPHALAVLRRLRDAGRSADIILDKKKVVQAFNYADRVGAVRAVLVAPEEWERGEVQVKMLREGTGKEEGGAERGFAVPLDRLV

The values are deposited in ChEMBL (CHEMBL3988442, “University of Dundee, Small-Polar-MMV Screening Library” (2021)).

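Histidine-tRNA ligase, Trypanosoma cruzi CL Brener (UniProt Q4DA54). Enzyme assay of histidyl-tRNA synthetase; the read-out is not stated. Concentration: 30 µM. Direction is inferred from retests: higher values go with stronger inhibition. Size under these conditions: about 69,000 compounds, about 31 of them at 50% or above in at least one test.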

Values are the deposited “Percent Effect”, in %. The controls that fix the scale are not given in the record; negative values are as filed. The compounds are a random part of those screened.

compound	percent effect
COc1ccc2c(c1)c(C(=O)Nc1cc(C)n(C)n1)cn2C(C)C	4.167
CC(C)CC(=O)N1CCC2(CC1)OCCO2	2.212
CCCc1n[nH]c(C2CN(C(=O)CCCn3ccnc3C)CCO2)n1 (centres undefined)	1.754
c1cncc(CN(Cc2ccc3c(c2)OCCO3)CC2CCCO2)c1 (centres undefined)	2.439
Cc1ccccc1S(=O)(=O)CCOC(C)C	0
CCn1ncc(C(=O)N2CCCN(CCCc3ccccc3)CC2)c1C	11.22
Cc1cc(CNC(=O)N(Cc2ccc(F)cc2F)C2CC2)no1	-1.17
COc1ccc(-c2nc(CCNC(=O)NC3CCC(O)CC3)co2)cc1 (centres undefined)	3.097
CC(C)c1ncc(CN2CCOC(C(=O)Nc3ccccc3)C2)cn1 (centres undefined)	2.247
c1ccc(C2CN(C3CC3)CC3(CCN(Cc4cscn4)CC3)C2)cc1 (centres undefined)	18.52
Cc1n[nH]c(C)c1CC(=O)N1CCC(O)(CN2CCOCC2)C1 (centres undefined)	1.515
CN1CCN(CC(NCc2cccc(O)c2)c2ccccc2)CC1 (centres undefined)	6.024
CCC1(CC)CC(=O)N(CC(O)c2cccc(F)c2)C1=O (centres undefined)	5.217
COc1ccnc(N2CCN(C(=O)c3csc(C4CC4)n3)CC2)n1	2.542
O=C(CCNC(=O)c1ccoc1)NCc1ccccc1F	3.396
O=C(O)Cn1ccc(=O)c2cc(Cl)ccc21	6.931
c1cnc(-c2nc(CN3CCOC(Cn4cncn4)C3)cs2)nc1 (centres undefined)	4.511
CCOCCC(=O)NCC1COc2c(cccc2OC)C1 (centres undefined)	4.348
Cc1ccc(C2CCCCCN2Cc2cn(C)nc2C)s1 (centres undefined)	8.696
CC(C)n1ncc2c1NC(=O)CC21C(=O)Nc2c(Cl)cc(Cl)cc21 (centres undefined)	-1.639
O=C(COCc1ccccc1Cl)N1CCN(c2ncccn2)CC1	8.333
CCOc1ccccc1CNC(=O)NCC(c1cnn(C)c1)N(C)C (centres undefined)	9.244
CC(C)=CCN1C[C@H]2CC[C@@H]1CN(S(=O)(=O)c1cccnc1)C2	14.14
CN(C(=O)CCN1CCCC1=O)c1cc(C#N)c2ccccc2n1	5.699
Cc1cc(C(=O)Nc2ccc3c(ccn3CCN3CCOCC3)c2)on1	8.407
COc1cn(CC(=O)N2CCC(c3ccccc3)CC2)c(C)cc1=O	4.969
COc1ccc2c(c1)CCCN2C(=O)c1cccc(N(C)C)c1	3.448
CN(Cc1cnn(C)c1)C(=O)NCCc1ccc2c(c1)OCCO2	0.2915
COc1cccc([C@@H]2CCN(Cc3cccc(C)n3)C[C@H]2O)c1	-1.212
CNC(=O)COC1COC2(CCN(c3ccc(C#N)cc3)CC2)C1 (centres undefined)	1.97
O=C(C1SCCc2sccc21)N1CCN(CCO)CC1 (centres undefined)	-3.743
CC(C)NC(=O)N1CCC2(COCc3cnc(N4CCOCC4)nc32)C1 (centres undefined)	4.878
CCc1ncc(C(=O)N2CCN(c3nc(C)cc(OC)n3)CC2)s1	9.091
Cc1cc(C(=O)NCC2CCCO2)c(C)n1-c1cccnc1 (centres undefined)	2.532
Cc1c(C(=O)N2CCCC(n3cncn3)C2)cnn1C (centres undefined)	4.274
Cc1ccc(N2CCO[C@H]3CN(Cc4nccs4)C[C@H]32)nn1	12.61
OCCN1CCN(Cc2coc(-c3ccccc3)n2)CC1	2.857
CCc1cnc2c(c1Nc1ccc(OC)cc1)c(=O)n(C)c(=O)n2C	4.348
Cc1ccnc(OC[C@]23COC[C@H]2CN(C(=O)c2ncccn2)C3)n1	-1.869
COCCSc1ccc(C(C)NC(=O)Nc2cn[nH]c2)cc1 (centres undefined)	5.882
c1ccc(-c2nnc3sc(CCN4CCCC4)nn23)cc1	4
CC(C)N1CCC2(CC1)C(=O)N(c1cccnc1)c1c(F)cccc12	6.952
CCn1c(C2CCCNC2)nn(Cc2ccc(C(=O)NC)o2)c1=O (centres undefined)	5.128
Cc1ccc(C(=O)N2CCC(c3n[nH]c(C4CC4)n3)CC2)cc1F	2.817
O=S(=O)(Cc1ccc(F)cc1)N1CCN(CC(O)C2CC2)CC1 (centres undefined)	3.061
Cn1cc(C2CCCN2Cc2csc(Cc3ccccc3)n2)cn1 (centres undefined)	21.14
Cc1ccccc1C1(CN)CCOCC1	1.19
Cc1nc(C)c(COc2ccc(N(C)S(C)(=O)=O)cc2)s1	7.006
COC(=O)CCC(=O)NC(C)Cc1ccccc1Br (centres undefined)	5.641
CCOCCN1CCN(Cc2nnc(-c3occc3C)o2)CC1CC (centres undefined)	4.046
Cc1cc(N2CCC(NC(=O)CCc3ccco3)CC2)nc(C)n1	4.762
CCCS(=O)(=O)N1CCN(c2cc(-n3nc(C)cc3C)nc(C)n2)CC1	2.51
CN1CCN(C(=O)c2nc3c(s2)CCCN3C(=O)C2CC2)CC1	4.301
CN(C)c1ncccc1CNS(=O)(=O)c1cc(F)cc(F)c1	1.143
CC(C)=CCN1C[C@H]2CC[C@@H]1CN(C(=O)c1c[nH]c(=O)c(Cl)c1)C2	0

The last 3 entries again:

With CN1CCN(C(=O)c2nc3c(s2)CCCN3C(=O)C2CC2)CC1 the screen gave 4.301%.
With CN(C)c1ncccc1CNS(=O)(=O)c1cc(F)cc(F)c1 the screen gave 1.143%.
With CC(C)=CCN1C[C@H]2CC[C@@H]1CN(C(=O)c1c[nH]c(=O)c(Cl)c1)C2 the screen gave 0%.